Laboratory results from PMC8346516, “Lsm12 is an NAADP receptor and a two-pore channel regulatory protein required for calcium mobilization from acidic organelles” (Nature Communications, 2021).
These are yes or no findings as the source states them, for the method shown. Binding seen in cells or lysates may run through a third protein. Some binding calls cover weakened binding; strength is not graded here.

Chains of the proteins cited; added tags and fusions are not shown.
UniProt Q8NHX9: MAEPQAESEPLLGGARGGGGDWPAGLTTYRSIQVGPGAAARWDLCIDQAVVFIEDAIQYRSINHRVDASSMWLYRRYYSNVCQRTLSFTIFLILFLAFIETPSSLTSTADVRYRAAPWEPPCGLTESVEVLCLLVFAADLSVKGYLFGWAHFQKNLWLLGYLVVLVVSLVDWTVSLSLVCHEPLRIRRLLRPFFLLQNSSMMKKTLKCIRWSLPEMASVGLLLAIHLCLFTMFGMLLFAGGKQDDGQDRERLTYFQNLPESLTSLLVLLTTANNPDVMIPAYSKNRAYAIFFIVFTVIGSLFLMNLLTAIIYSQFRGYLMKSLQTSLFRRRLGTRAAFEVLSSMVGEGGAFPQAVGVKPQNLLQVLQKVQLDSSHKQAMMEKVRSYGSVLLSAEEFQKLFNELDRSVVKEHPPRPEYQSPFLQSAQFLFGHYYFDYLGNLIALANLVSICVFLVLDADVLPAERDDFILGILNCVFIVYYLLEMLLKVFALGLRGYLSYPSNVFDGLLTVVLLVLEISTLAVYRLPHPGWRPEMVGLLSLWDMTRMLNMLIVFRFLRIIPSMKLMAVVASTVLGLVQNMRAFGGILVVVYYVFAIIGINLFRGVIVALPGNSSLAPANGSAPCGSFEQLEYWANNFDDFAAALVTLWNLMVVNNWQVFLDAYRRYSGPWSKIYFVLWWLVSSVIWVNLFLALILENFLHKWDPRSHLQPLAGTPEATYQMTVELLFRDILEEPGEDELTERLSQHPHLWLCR

B1: Lsm12 ΔLsm (protein, UniProt Q3MHD2)
chain: MAAIINDRTETPPPLASLNVSKLASKARTEKEEKLSQAYAISAGVSLEGQQLFQTIHKTIKDCKWQEKNIVVMEEVVITPPYQVENCKGKEGSALSHVRKIVEKHFRDVESQKILQRSQAQQPQKEAALSS
B2: Lsm12 Δlinker (protein, UniProt Q3MHD2)
chain: MAAPPGEYFSVGSQVSCRTCQEQRLQGEVVAFDYQSKMLALKCPSSSGKPNHADILLINLQYVSEVESKLASKARTEKEEKLSQAYAISAGVSLEGQQLFQTIHKTIKDCKWQEKNIVVMEEVVITPPYQVENCKGKEGSALSHVRKIVEKHFRDVESQKILQRSQAQQPQKEAALSS
B3: Lsm12 ΔAD (domain or fragment, UniProt Q3MHD2 1-84)
chain: MAAPPGEYFSVGSQVSCRTCQEQRLQGEVVAFDYQSKMLALKCPSSSGKPNHADILLINLQYVSEVEIINDRTETPPPLASLNV

The binders below were run against TPC2 (exogenous, in TPC2-expressing HEK293 cells) (human) (UniProt Q8NHX9) (assay: co-IP; co-immunoprecipitation of co-expressed TPC2 and Lsm12 WT or truncation mutants (Fig. 4e); WT also in the absence or presence of 100 µM NAADP (Fig. 4f)).

| binding | Binder |
| --- | --- |
| no binding | B1 |
| binds | B2 |
| binds | B3 |
